Measured values as given in patent publication US20230045199A1, “COMPOSITIONS AND METHODS FOR HEMOGLOBIN PRODUCTION” (THE CHILDREN'S HOSPITAL OF PHILADELPHIA, priority 2019, published 2023).
Some results were stated once for a whole list of compounds, not compound by compound.

Tested on: PP6C
Assay: Western blot of PP6C and gamma-globin in primary human cells after RNP electroporation of SpCas9 with guide RNA
Format: cell-based
From the text: FIGS. 2A-2D provide data regarding validation of PP6C as a regulator of HbF in human primary cells utilizing RNP-based electroporation of SpCas9 with guide RNA targeting PP6C. FIG. 2A depicts protein levels by Western blot of PP6C and gamma-globin with 6 independent guide RNA targeting PP6C or a non-targeting guide RNA. […] These specific guide RNAs were utilized for further primary human cell testing. FIG. 2B provides a graph of gamma globin mRNA levels in four independent biological replicates of human primary cells treated with PP6C sgRNA #1 or #3; a guide RNA targeting the BCL11A +58 enhancer (positive control), or a non-targeting guide RNA (negative control). FIG. 2C provides representative flow cytometric plots of HbF staining (top) and compiled F-cell flow cytometric staining in four independent biological replicates (bottom) in cells treated with PP6C sgRNA, BCL11A +58 sgRNA, or non-targeting sgRNA. […] FIG. 2D are representative cation-exchange high performance liquid chromatography (HPLC) tracings (top) and complied HPLC HbF+ quantitation in two independent biological replicates (bottom) in cells treated with PP6C sgRNA, BCL11A +58 sgRNA, or non-targeting sgRNA. HbF elutes as a distinct peak (grey box), followed by adult hemoglobin (HbA). Percentages are quantified as HbF percentage of total globins (HbF+HbA). […]

Substance	Protein levels of PP6C depleted
PP6C sgRNA3: CRISPR sgRNA targeting PP6C, sequence GGAACTGCCCGGAATAACTT (SEQ ID NO: 7) (listed as DNA, chemistry not given here)	more than 85%
PP6C sgRNA1: CRISPR sgRNA targeting PP6C, sequence GCACATCAACTAGTGCACGA (SEQ ID NO: 5) (listed as DNA, chemistry not given here)	more than 85%
